This note sets out measurements from PubChem BioAssay AID2685 (National Center for Advancing Translational Sciences (NCATS), 2010).

The assay in a line: qHTS Assay for Lipid Storage Modulators in Drosophila S3 Cells.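 For cell number change: cells counted by Cell Tracker Red CMTPX staining in the red channel.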 The conditions noted are these: BODIPY lipid droplet fluorescence, 18-24 h; for cell number change: measured here: cell count max response, cells fed with added oleic acid. The gist of the method:
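Laser-scanning cytometry quantifies lipid droplet accumulation (500–530 nm total intensity; droplet/cell object ratio) in oleic acid-fed (400 uM added) Drosophila S3 cells treated with a concentration series. 20 uM Triacsin C defined 100% inhibition.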
(Quantitative high-throughput screening tests each substance at several concentrations.)

The mark [1] stands for this setting: measured here: cell number channel AC50, cells fed with added oleic acid.
Setting [2] is: measured here: lipid fluorescence (Fed channel) AC50, cells fed with added oleic acid.

The other results are listed elsewhere or left out. Further columns of the screen follow, without active or inactive calls. Compounds called inactive in the main read-out are mostly missing here. Words in brackets tell the shape of the fitted curve; partial curves, single points and poor fits give uncertain potencies.

`Fc1ccc(/C=N/NC(=S)Nc2cccnc2)cc1`: the cell number change is 87.9%.
Take `CS(=O)(=O)Oc1ccc(/C=N/NC(=O)c2ccncc2)cc1`: the cell number change was determined as 16.7%. Under setting [1], the AC50 (commonly the concentration giving half of the maximal activity seen) was 0.0651 µM [falling, full curve]. Further, the AC50 under setting [2] is 0.651 µM [falling, partial curve, poor fit].
As for `Cc1ccccc1C(=O)O`, the cell number change is 13.3%. Further, the AC50 under setting [1] is 0.146 µM [falling, single point].
For the compound `COc1nnc(-c2ccc(N3CCOCC3)c(NC(=O)c3ccccc3)c2)c2ccccc12`, the cell number change is -0.133%.
The same measure, in the same setting: the same measure for `CCN(CC(=O)Nc1c(F)cccc1F)C(=O)CNC(=O)c1ccc(Br)o1`: -5.66%.
`COc1ccc(NC(=O)Cc2nnc(SCC(=O)Nc3ccccc3)n2C)cc1`: the cell number change was determined as 22.7%. In addition, the AC50 under setting [2] is 20.6 µM [rising, single point].
In the case of `O=C1NCCN(Cc2ccc(Cl)c(F)c2)C1CC(=O)N1CCCO1` (stereo not drawn), the cell number change amounted to 20.5%. Besides, the AC50 under setting [2] was 0.00651 µM [rising, full curve, poor fit].
For the compound `O=C(/C=C/c1ccco1)NC1CCCC1`, the cell number change was determined as 24.2%. Also, the AC50 under setting [2] was 0.13 µM [falling, full curve, poor fit].
Turning to `CCc1ccccc1-n1cnc2cc(C(=O)O)ccc21`, the cell number change was -32.3%.
Consider `COc1cc2c(cc1OC)C(C)N(S(=O)(=O)c1cnc(Cl)c(Cl)c1)CC2` (stereo not drawn), for which, under setting [2], the AC50 was 6.51 µM [falling, single point].
For the compound `Cc1ccc(OC(F)F)c(NC(=O)Nc2cccc(C(F)(F)F)c2)c1`, the cell number change is -81%. Moreover, the AC50 under setting [1] was 29.1 µM [falling, single point].
In the case of `COc1ccc(CN2C(=O)C(O)(CC(=O)c3c(C)n[nH]c3C)c3ccccc32)cc1OC` (stereo not drawn), the cell number change turned out to be 10%. Further, under setting [2], the AC50 is 0.731 µM [rising, full curve].
With `O=C(NC1CCN(Cc2ccccc2)CC1)c1ccc(CS(=O)c2ccc(F)cc2)o1` (stereo not drawn), the AC50 under setting [2] is 6.51 µM [falling, single point].
For the compound `O=C(NCc1nc2ccccc2[nH]1)C1=C[C@@H](c2csc3ccccc23)C[C@@H](OCCCCO)O1`, the cell number change was -0.318%. Further, under setting [2], the AC50 was 1.3 µM [rising, full curve, poor fit].
Consider `Cc1ccc(Cl)c(OCCN2CCCC(C)C2)c1` (stereo not drawn), for which the cell number change came to 12.7%. Also, under setting [2], the AC50 is 6.51 µM [falling, single point].
On to `Cc1ccc(-n2nc3ccc(NC(=O)c4ccco4)cc3n2)cc1`, for which the concentration at half-maximal activity (AC50) under setting [1] is 1.46 µM [rising, partial curve].
Take `N#CC1(C#N)CC(C=O)=C(N)C1(C#N)CC(=O)C12CC3CC(CC(C3)C1)C2` (stereo not drawn): the cell number change is -22.1%. Further, under setting [2], the AC50 was 29.1 µM [falling, single point].
As to `COc1ccc2c(c1)c(=O)c(C(=O)c1ccc(C)cc1)cn2CC(=O)Nc1ccc(F)cc1`, the cell number change came to 10.4%.
The same measure, in the same setting: for `Cc1cccc(NC(=O)CN(CC2CCCO2)C(=O)c2oc3ccccc3c2C)c1C` (stereo not drawn) the value was -29.7%.
Take `Cc1cc(C)cc(C(=O)NCCCN2CCOCC2)c1`: the cell number change is 8.76%. Moreover, under setting [2], the AC50 is 0.58 µM [falling, single point].
As to `Cn1ncc2c(Nc3ccc(Cl)cc3)ncnc21`, the cell number change was -25.7%. For the same compound, under setting [2], the AC50 is 1.03 µM [falling, full curve].
On to `NC(=O)CC(NC(=O)Cc1ccc(Br)cc1)c1ccc(NCc2cc(F)ccc2F)c([N+](=O)[O-])c1` (stereo not drawn), for which the cell number change was 14.9%. Further, the AC50 under setting [2] was 10.3 µM [falling, partial curve].
For `Cc1cc(Cl)ccc1OCC(=O)NCCCN1CCOCC1`, the cell number change is -11.2%. Moreover, the AC50 under setting [2] was 29.1 µM [rising, single point].
As to `COc1cc2c(cc1OC)CN(C(=O)CNC(=O)c1ccc(OC(F)F)cc1)CC2`, the cell number change came to 25.2%. In addition, the AC50 under setting [1] is 0.461 µM [rising, full curve, poor fit]. Further, the AC50 under setting [2] was 13 µM [rising, partial curve, poor fit].
With `O=C(CCCn1c(=S)[nH]c2ccc(Br)cc2c1=O)NCC1CCCO1` (stereo not drawn), the cell number change is -15.2%. Under setting [2], the AC50 was 29.1 µM [falling, single point].
Take `COc1ccc(N(CC(O)CN2CCOCC2)S(=O)(=O)c2ccccc2)cc1` (stereo not drawn): the cell number change came out at 6.41%.
Regarding `C=CCOc1cccc(C2C(C(=O)c3ccc(C)o3)=C(O)C(=O)N2c2nnc(C)s2)c1` (stereo not drawn), the cell number change was 47.5%. In addition, the AC50 under setting [1] was 1.64 µM [rising, partial curve].
Take `COc1ccc(CNC(=O)C(OC(=O)c2ccco2)c2ccc(F)cc2)cc1` (stereo not drawn): the cell number change was determined as 21.7%. Also, the AC50 under setting [2] was 0.00461 µM [rising, full curve, poor fit].
Regarding `CCOC(=O)C1(CCOC)CCN(Cc2ccc3nonc3c2)CC1`, the cell number change came to 9.47%. For the same compound, the AC50 under setting [1] is 4.11 µM [rising, single point]. Also, under setting [2], the AC50 was 3.66 µM [rising, single point].
As to `CCN(CC)c1ccc2cc(S(=O)(=O)c3ccc(C)cc3)c(=O)oc2c1`, the cell number change stood at 52.9%. Also, under setting [1], the AC50 is 29.1 µM [rising, single point]. Also, the AC50 under setting [2] was 23.1 µM [rising, partial curve].
On to `O=C(NC1CCCC1)c1ccc(CS(=O)Cc2ccc(Cl)cc2)o1` (stereo not drawn), for which the AC50 under setting [2] was 6.51 µM [falling, single point].
Take `N#C/C(=C\c1ccc(O)c(O)c1)C(=O)NCCc1ccccc1`: the cell number change was -21.9%. The AC50 under setting [1] is 0.116 µM [falling, full curve, poor fit]. The AC50 under setting [2] is 0.116 µM [falling, full curve, poor fit].
Turning to `CC(=O)c1cccc(NCC(=O)c2ccc(C)c([N+](=O)[O-])c2)c1`, the cell number change turned out to be 17.1%. Further, the AC50 under setting [2] is 6.51 µM [rising, single point].
On to `CC1=CC=CC2=NC(=O)CC(C)(C(=O)N(CC(=O)NC3CCCC3)c3ccc(F)cc3)N12` (stereo not drawn), for which the cell number change is -19.2%.
As for `CCOC(=O)c1ccc(NC(=O)C2CCCN(c3cnccn3)C2)cc1` (stereo not drawn), the cell number change was determined as 2.39%. Further, under setting [1], the AC50 is 1.64 µM [rising, partial curve, poor fit]. Besides, under setting [2], the AC50 is 2.59 µM [rising, partial curve].
As to `COc1ccc(N2CCN(CNC(=O)c3ccccc3)CC2)cc1`, the cell number change was 9.26%. Under setting [2], the AC50 was 29.1 µM [rising, single point].
On to `CCCNC(=O)c1ccc(COc2ccc(C(C)(C)C)cc2)o1`, for which the cell number change was -27.7%. The AC50 under setting [2] is 29.1 µM [falling, single point].
With `Cc1ccccc1CSCC(=O)Nc1c(C)n(C)n(-c2ccccc2)c1=O`, the cell number change came out at 40%. Moreover, under setting [1], the AC50 was 32.6 µM [rising, single point].
`COc1ccc(NC(=O)CN2C(=O)CSc3ncccc32)cc1`: the cell number change amounted to 13.5%.
For `O=C(O)c1ccc(Cl)c(S(=O)(=O)Nc2ccccc2C(=O)Nc2ccc(Cl)cc2)c1`, the cell number change is 17.1%.
Still for that read-out and setting: the same measure for `CC1CCN(C(=O)CN2C(=O)c3cccc4cccc(c34)C2=O)CC1`: 5.7%.
Consider `O=C(c1ccccc1)c1ccc(C(=O)N2CCN(c3ccccc3Cl)CC2)cc1`, for which the cell number change was -19%. Further, under setting [1], the AC50 is 0.103 µM [falling, full curve, poor fit]. The AC50 under setting [2] was 0.206 µM [falling, full curve].
Turning to `CCOC(=O)C1=C(C)NC(SCC(N)=O)=C(C#N)C1c1ccccc1` (stereo not drawn), the cell number change stood at 31.6%. Besides, the AC50 under setting [1] is 0.0651 µM [rising, full curve, poor fit].
Regarding `C[C@]12C[C@H](O)[C@@H]3c4ccc(O)cc4CCC3[C@@H]1CCC2=O` (stereo partly drawn), the cell number change stood at 14.7%. In addition, the AC50 under setting [1] was 0.184 µM [rising, full curve, poor fit]. In addition, under setting [2], the AC50 was 0.13 µM [rising, full curve, poor fit].
With `Cc1ccc(-n2c3c(cc(C(=O)NCC(=O)c4ccccc4)c2=O)C(=O)CCC3)cc1`, the cell number change is -33.3%. In addition, under setting [1], the AC50 was 14.6 µM [falling, single point]. Under setting [2], the AC50 is 8.2 µM [falling, partial curve].
With `Cc1cc(C)cc(C(=O)N2CCN=C2SCc2ccc([N+](=O)[O-])cc2)c1`, the AC50 under setting [2] is 14.6 µM [falling, partial curve].
On to `Oc1ccc(C2=Nn3c(nnc3-c3ccco3)SC2)cc1O`, for which the cell number change was -74.5%. Also, the AC50 under setting [1] is 3.26 µM [falling, full curve]. Further, the AC50 under setting [2] was 3.66 µM [falling, full curve].
Consider `CC12CCCCC1c1ccccc1C(=NCC(=O)O)N2` (stereo not drawn), for which the cell number change is -8.3%. The AC50 under setting [2] was 23.1 µM [falling, single point].
Consider `Cc1ccc(OCC(O)CN2CCN(c3ccccn3)CC2)c(C)c1` (stereo not drawn), for which the cell number change was determined as 18.2%. Further, under setting [2], the AC50 was 29.1 µM [rising, single point].
Take `N#CC1(c2ccccc2)CCCN1C(=O)c1ccc(Br)o1` (stereo not drawn): the cell number change is -19.6%.
On to `O=C(Nc1ccc(Cl)cc1)Nc1cccc2nsnc12`, for which the AC50 under setting [2] was 29.1 µM [falling, single point].
Turning to `COc1ncccc1-c1nnn(-c2ccc(Cl)c(Cl)c2)n1`, the cell number change was found to be 11.3%. Under setting [2], the AC50 was 9.2 µM [rising, partial curve, poor fit].
For `C=CCN1C(=S)CC(c2ccccc2)=Nc2ccccc21`, the cell number change is -9.47%.
As to `CCCc1nc2ccc(NC(=O)NCCC(=O)OCC)cc2c(=O)n1Cc1ccc(Cl)cc1`, the cell number change was -24%. In addition, under setting [2], the AC50 is 32.6 µM [falling, single point].
Turning to `CCOC(=O)N1CCN(C(=O)CN(c2ccc(C)c(C)c2)S(=O)(=O)c2ccccc2)CC1`, the cell number change was -1.16%.
On to `CCC(C)NS(=O)(=O)c1ccc(S(=O)(=O)N(CC(=O)Nc2ccccc2)CC2CCCO2)cc1` (stereo not drawn), for which the cell number change turned out to be 0.54%. Besides, under setting [1], the AC50 was 6.51 µM [rising, single point]. Besides, under setting [2], the AC50 was 29.1 µM [rising, single point].
In the case of `CCOc1ccc(N2C=Nc3ccc(OCC)cc3C2)cc1`, the cell number change came to 18.7%.
On to `CCCN1CCC(=NNc2ccc(S(=O)(=O)N(CC)CC)cc2[N+](=O)[O-])CC1`, for which the cell number change stood at 86%. Besides, under setting [1], the AC50 was 18.4 µM [rising, partial curve, poor fit]. For the same compound, under setting [2], the AC50 was 25.9 µM [rising, partial curve].
With `CCCCn1c(N)c(N(CC)C(=O)c2cccc(C)c2)c(=O)[nH]c1=O`, the cell number change stood at 5.88%. For the same compound, under setting [2], the half-maximal activity concentration (AC50) was 0.00461 µM [rising, full curve, poor fit].
With `COc1ccc(/C=C2\CCCC3C2=NN(C(=O)CSc2ncn[nH]2)C3c2ccc(OC)cc2)cc1` (stereo not drawn), the AC50 under setting [2] is 29.1 µM [falling, single point].
Consider `COc1ccc(S(=O)(=O)NNC(=O)c2ccc([N+](=O)[O-])cc2)cc1`, for which the cell number change is -16.4%.
As for `Cc1ccc(S(=O)(=O)N2CCCCC2)cc1NC(=O)c1nn(C)c(=O)c2ccccc12`, the cell number change is -1.49%. Also, the AC50 under setting [2] was 0.206 µM [rising, full curve, poor fit].
